Measured values as given in PMC3422273.
Results are given in words; binding and its absence hold for the method and conditions named. Binding calls can cover weak binding; strength is not graded here. Where a sequence is shown, tags or fusion partners need not be part of it.

biological target: T1, LexA DNA-binding domain fusion of IAA8 (Arabidopsis thaliana) (UniProt Q38826); test: two-hybrid; LexA-based system in yeast EGY48::pJK103; bait BD-IAA8 in pEG202gw, prey AD-ARFCTD in pJG4-5gw; semi-quantitative lacZ (beta-gal) activity by the ONPG method
T1 sequence: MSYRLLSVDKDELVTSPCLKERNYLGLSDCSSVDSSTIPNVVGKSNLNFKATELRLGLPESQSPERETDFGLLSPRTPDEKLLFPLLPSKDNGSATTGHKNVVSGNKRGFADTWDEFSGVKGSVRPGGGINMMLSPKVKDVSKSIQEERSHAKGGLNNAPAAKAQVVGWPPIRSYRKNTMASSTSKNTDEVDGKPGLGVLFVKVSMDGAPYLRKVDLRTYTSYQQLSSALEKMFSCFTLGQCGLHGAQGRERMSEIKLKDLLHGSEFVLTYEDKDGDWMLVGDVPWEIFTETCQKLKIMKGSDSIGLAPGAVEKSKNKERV

Substance | binding
AD-ARF3CTD (activation domain with HA tag fusion of the C-terminal domain of ARF3) (Arabidopsis thaliana) (domain or fragment) | no binding
AD-ARF4CTD (activation domain with HA tag fusion of the C-terminal domain of ARF4) (Arabidopsis thaliana) (domain or fragment) | binds
AD-ARF5CTD (activation domain with HA tag fusion of the C-terminal domain of ARF5) (Arabidopsis thaliana) (domain or fragment) | binds
AD-ARF7CTD (activation domain with HA tag fusion of the C-terminal domain of ARF7) (Arabidopsis thaliana) (domain or fragment) | binds
AD-ARF11CTD (activation domain with HA tag fusion of the C-terminal domain of ARF11) (Arabidopsis thaliana) (domain or fragment) | binds
AD-ARF16CTD (activation domain with HA tag fusion of the C-terminal domain of ARF16) (Arabidopsis thaliana) (domain or fragment) | binds
AD-ARF19CTD (activation domain with HA tag fusion of the C-terminal domain of ARF19) (Arabidopsis thaliana) (domain or fragment) | binds
